No constants are given. Whether binding was seen depends on the method and setting.
Target: T1, full-length human myelin protein zero (P0) (human), P25189
T1 chain: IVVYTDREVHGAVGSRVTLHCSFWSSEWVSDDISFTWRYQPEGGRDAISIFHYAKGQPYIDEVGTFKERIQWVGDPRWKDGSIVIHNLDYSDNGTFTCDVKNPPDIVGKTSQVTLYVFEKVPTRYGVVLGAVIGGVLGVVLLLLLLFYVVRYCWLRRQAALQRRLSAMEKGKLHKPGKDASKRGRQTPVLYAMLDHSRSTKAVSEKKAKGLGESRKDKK
Assay: SEC-SAXS
Conditions: remark: other sources report otherwise

B1: full-length human myelin protein zero (P0), P25189 30-248 (protein)
chain: T1 chain
  binding: no binding (tested: 0.94 mg/ml)
